For the series the following is noted: in vivo. Here is the method:
In the second test, the tolerability and taste of a small aerosol sample from a 0.5 ml aliquot of the test formulation was determined in a single healthy human volunteer, following nebulization in a PARI eFlow nebulizer (Table 12).
The tolerability and taste of the drug during a very brief administration period and for a period of 10 minutes post administration were monitored. Tolerability parameters were of the following types: (i) cough, cough sensation, or sneezing (ii) irritation, burning or tightness of throat, (ii) irritation or runniness in nasal passages or eyes, (iii) irritation, burning or tightness of the lungs or shortness of breadth, and (iv) dizziness, headache, nausea or other systemic effects.

Turning to `O=C(O)c1cn(C2CC2)c2cc(N3CCNCC3)c(F)cc2c1=O` [Ciprofloxacin], the “cough on aerosol exposure” value is on record as “associated with cough”.

For the origin of these results see US10987357B2, “Aerosolized fluoroquinolones and uses thereof” (Horizon Orphan, LLC, priority 2005, dated 2021).
